Results: publication PMC10501185
Results are given in words; binding and its absence hold for the method and conditions named. Some binding calls cover weakened binding; strength is not graded here. For some assays here: Tags and fused reporters may be left off the sequences shown.

The chains behind the UniProt entries cited, without tags or fusion partners.
UniProt P14240: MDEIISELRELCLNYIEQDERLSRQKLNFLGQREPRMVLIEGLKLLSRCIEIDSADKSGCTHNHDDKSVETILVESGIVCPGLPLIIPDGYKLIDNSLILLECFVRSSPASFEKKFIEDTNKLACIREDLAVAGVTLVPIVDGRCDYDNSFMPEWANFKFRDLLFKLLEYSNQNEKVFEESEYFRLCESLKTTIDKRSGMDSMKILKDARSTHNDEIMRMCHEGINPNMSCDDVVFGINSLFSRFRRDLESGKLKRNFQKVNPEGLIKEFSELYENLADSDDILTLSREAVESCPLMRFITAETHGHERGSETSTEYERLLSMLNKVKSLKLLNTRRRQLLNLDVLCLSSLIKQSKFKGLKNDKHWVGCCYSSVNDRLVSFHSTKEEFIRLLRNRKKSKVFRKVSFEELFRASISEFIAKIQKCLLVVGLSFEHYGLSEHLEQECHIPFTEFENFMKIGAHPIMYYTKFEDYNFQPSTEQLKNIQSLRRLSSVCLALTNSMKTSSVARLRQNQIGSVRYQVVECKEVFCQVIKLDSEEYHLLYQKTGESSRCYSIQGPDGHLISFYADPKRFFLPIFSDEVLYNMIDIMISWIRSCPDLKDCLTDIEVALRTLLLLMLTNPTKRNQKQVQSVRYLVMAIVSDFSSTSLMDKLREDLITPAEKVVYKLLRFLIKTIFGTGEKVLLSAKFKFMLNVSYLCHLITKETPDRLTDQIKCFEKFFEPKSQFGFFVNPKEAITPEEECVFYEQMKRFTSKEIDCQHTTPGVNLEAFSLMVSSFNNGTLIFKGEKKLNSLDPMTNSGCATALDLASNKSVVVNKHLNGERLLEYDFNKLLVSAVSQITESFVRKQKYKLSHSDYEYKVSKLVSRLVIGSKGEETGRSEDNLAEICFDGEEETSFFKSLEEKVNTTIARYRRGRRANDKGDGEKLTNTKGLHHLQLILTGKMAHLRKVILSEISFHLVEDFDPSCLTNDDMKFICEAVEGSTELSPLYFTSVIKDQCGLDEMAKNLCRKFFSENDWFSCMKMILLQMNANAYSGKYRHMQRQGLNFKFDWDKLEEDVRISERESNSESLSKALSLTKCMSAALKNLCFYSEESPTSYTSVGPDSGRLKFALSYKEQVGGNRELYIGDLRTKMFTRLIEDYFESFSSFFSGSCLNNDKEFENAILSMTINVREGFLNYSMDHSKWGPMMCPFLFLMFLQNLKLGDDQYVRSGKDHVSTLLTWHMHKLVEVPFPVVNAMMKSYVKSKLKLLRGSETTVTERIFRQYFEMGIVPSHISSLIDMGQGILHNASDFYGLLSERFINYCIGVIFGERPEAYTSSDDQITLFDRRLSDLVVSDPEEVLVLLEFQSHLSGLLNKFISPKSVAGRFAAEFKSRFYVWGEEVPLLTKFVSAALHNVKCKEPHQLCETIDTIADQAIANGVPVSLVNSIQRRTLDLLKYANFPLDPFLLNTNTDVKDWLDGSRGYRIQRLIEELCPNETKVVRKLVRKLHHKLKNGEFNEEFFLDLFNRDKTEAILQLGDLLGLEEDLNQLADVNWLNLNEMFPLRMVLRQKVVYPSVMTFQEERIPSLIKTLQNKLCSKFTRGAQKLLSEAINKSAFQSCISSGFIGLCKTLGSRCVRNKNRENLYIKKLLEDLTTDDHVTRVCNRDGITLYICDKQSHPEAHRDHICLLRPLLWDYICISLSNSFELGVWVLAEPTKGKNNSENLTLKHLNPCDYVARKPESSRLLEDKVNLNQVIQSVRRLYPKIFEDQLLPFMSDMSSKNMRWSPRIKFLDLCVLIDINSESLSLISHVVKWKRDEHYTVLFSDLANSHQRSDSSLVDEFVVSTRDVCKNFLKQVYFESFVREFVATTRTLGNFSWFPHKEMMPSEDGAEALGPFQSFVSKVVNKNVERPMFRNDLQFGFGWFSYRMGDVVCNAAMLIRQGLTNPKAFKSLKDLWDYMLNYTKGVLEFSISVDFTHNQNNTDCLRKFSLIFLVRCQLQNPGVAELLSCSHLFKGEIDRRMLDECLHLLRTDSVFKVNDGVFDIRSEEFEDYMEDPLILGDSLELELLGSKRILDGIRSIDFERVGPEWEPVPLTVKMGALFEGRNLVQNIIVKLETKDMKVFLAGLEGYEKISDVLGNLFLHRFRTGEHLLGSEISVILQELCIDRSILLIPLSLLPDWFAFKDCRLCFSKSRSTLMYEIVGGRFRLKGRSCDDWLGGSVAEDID

Assays:
[1] = biological target: T1, GST tagged LCMV-Z (wild type) (Lymphocytic choriomeningitis virus (LCMV)) (UniProt P18541); test: pull-down; both purified
T1 sequence: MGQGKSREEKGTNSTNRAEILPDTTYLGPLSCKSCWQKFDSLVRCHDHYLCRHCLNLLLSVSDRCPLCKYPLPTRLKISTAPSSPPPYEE

[2] = biological target: T2, Lymphocytic choriomeningitis virus RING finger Z matrix protein (Lymphocytic choriomeningitis virus (LCMV)) (UniProt P18541); test: cryo-EM structure; both purified
T2 sequence: T1 sequence

Lymphocytic choriomeningitis virus large polymerase (L) (from UniProt P14240 1-2210) (enzyme)
binding [1]: binds | binding [2]: binds
